{"source": "patent US7923573B2", "about": "“Benzene compound having 2 or more substituents” (Daiichi Sankyo Company, Limited, priority 2004, dated 2011)", "note": "Some of these results come from one statement about several compounds together."}
{"molecular_target": "T1, LXRβ (Homo sapiens, UniProt P55055)", "T1 construct": "expressed in transfected cells; host or cells: CV-1 African green monkey kidney cells (ATCC CCL-70)", "T1 sequence (P55055 1-460)": "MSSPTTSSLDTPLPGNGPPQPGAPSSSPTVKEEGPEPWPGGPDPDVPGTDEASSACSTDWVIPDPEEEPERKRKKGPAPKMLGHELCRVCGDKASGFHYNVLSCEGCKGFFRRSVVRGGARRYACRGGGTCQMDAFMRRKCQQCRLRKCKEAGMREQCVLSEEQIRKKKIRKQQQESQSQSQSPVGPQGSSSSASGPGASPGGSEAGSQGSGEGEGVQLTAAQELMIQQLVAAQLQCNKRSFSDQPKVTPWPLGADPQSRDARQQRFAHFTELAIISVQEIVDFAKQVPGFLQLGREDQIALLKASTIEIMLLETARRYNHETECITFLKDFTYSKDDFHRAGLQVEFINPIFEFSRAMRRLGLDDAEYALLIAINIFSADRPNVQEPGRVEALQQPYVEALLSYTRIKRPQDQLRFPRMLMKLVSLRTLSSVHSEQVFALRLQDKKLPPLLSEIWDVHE", "T1 sequence (P19793 1-462 partner)": "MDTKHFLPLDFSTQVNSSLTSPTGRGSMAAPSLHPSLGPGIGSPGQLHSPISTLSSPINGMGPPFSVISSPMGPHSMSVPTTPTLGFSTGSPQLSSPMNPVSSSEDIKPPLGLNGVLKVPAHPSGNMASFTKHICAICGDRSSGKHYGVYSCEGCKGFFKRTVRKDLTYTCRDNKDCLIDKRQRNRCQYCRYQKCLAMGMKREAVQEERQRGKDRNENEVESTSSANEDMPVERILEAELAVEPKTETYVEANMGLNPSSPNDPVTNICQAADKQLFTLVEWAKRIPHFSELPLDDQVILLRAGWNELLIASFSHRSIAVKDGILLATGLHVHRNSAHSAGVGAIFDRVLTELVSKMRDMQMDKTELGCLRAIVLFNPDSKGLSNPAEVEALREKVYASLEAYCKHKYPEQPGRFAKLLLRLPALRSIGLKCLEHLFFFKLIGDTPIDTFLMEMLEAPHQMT", "assay": "Co-transfection assay (LXR/LXRE luciferase reporter), LXRβ", "type": "cell-based", "settings": "CV-1 cells transfected with hLXRβ and LXRE luciferase reporter; agonist activity; read-out: EC50 value against LXRβ", "units": {"EC50": "µM"}}
{"smiles": "CC(C)(C)OC(=O)c1c(COc2ccc(-c3cccc(CNS(C)(=O)=O)c3)cc2)ccc(C(F)(F)F)c1O", "note": "[Example 58, tert-Butyl 2-hydroxy-6-{[(3′-{[(methylsulfonyl)amino]methyl}-1,1′-biphenyl-4-yl)oxy]methyl}-3-(trifluoromethyl)benzoate]", "EC50": "≤ 3"}
{"smiles": "CCNC(=O)Cc1ccc(-c2ccc(OCc3ccc(C(F)(F)F)c(O)c3C(=O)OC(C)(C)C)cc2)cc1", "note": "[Example 59, tert-Butyl 6-[({4′-[2-(ethylamino) 2-oxoethyl]-1,1′-biphenyl-4-yl}oxy)methyl]-2-hydroxy-3-(trifluoromethyl)benzoate]", "EC50": "≤ 3"}
{"smiles": "CC(C)(C)OC(=O)c1c(COc2ccc(-c3ccc(CS(C)(=O)=O)cc3)cc2)ccc(C(F)(F)F)c1O", "note": "[Example 60, tert-Butyl 2-hydroxy-6-[({4′-[(methylsulfonyl)methyl]-1,1′-biphenyl-4-yl}oxy)methyl]-3-(trifluoromethyl)benzoate]", "EC50": "≤ 3"}
{"smiles": "CC(C)(C)OC(=O)c1c(COc2ccc(-c3ccc(CC(=O)O)c(S(C)(=O)=O)c3)cc2)ccc(C(F)(F)F)c1O", "note": "[Example 61, [4′-{[2-(tert-Butoxycarbonyl)-3-hydroxy-4-(trifluoromethyl)benzyl]oxy}-3-(methylsulfonyl)-1,1′-biphenyl-4-yl]acetic acid]", "EC50": "≤ 3"}
{"smiles": "CN(c1cccc(-c2ccc(OCc3ccc(C(F)(F)F)c(O)c3C(=O)OC(C)(C)C)cc2)c1)S(C)(=O)=O", "note": "[Example 62, tert-Butyl 2-hydroxy-6-[({3′-[methyl(methylsulfonyl)amino]-1,1′-biphenyl-4-yl}oxy)methyl]-3-(trifluoromethyl)benzoate]", "EC50": "≤ 3"}
{"smiles": "CC(C)(C)OC(=O)c1c(COc2ccc(-c3ccc(C(=O)O)cn3)cc2)ccc(C(F)(F)F)c1O", "note": "[Example 63, 6-(4-{[2-(tert-Butoxycarbonyl)-3-hydroxy-4-(trifluoromethyl)benzyl]oxy}phenyl)nicotinic acid]", "EC50": "≤ 3"}
{"smiles": "CC(C)(C)OC(=O)c1c(COc2ccc(-c3cncc(CC(=O)O)c3)cc2)ccc(C(F)(F)F)c1O", "note": "[Example 64, [5-(4-{[2-(tert-Butoxycarbonyl)-3-hydroxy-4-(trifluoromethyl)benzyl]oxy}phenyl)-3-pyridinyl]acetic acid]", "EC50": "≤ 3"}
{"smiles": "CC(C)(C)OC(=O)c1c(COc2ccc(-c3ccc(CCC(=O)O)cc3)cc2)ccc(C(F)(F)F)c1O", "note": "[Example 65, 3-(4′-{[2-(tert-Butoxycarbonyl)-3-hydroxy-4-(trifluoromethyl)benzyl]oxy}-1,1′-biphenyl-4-yl)propanoic acid]", "EC50": "≤ 3"}
{"smiles": "CCCc1cc(CC(=O)O)ccc1-c1ccc(OCc2ccc(C(F)(F)F)c(O)c2C(=O)OC(C)(C)C)cc1", "note": "[Example 66, (4′-{[2-(tert-Butoxycarbonyl)-3-hydroxy-4-(trifluoromethyl)benzyl]oxy}-2-propyl-1,1′-biphenyl-4-yl)acetic acid]", "EC50": "≤ 3"}
{"smiles": "CC(=O)c1cccc(-c2ccc(OCc3ccc(C(F)(F)F)c(O)c3C(=O)OC(C)(C)C)cc2)c1", "note": "[Example 67, tert-Butyl 6-{[(3′-acetyl-1,1′-biphenyl-4-yl)oxy]methyl}-2-hydroxy-3-(trifluoromethyl)benzoate]", "EC50": "≤ 3"}
{"smiles": "COC(=O)Cc1ccc(-c2ccc(OCc3ccc(C(F)(F)F)c(O)c3C(=O)OC(C)(C)C)cc2)cc1Cl", "note": "[Example 68, tert-Butyl 6-{[(3′-chloro-4′-[(methoxycarbonyl)methyl]-1,1′-biphenyl-4-yl)oxy]methyl}-2-hydroxy-3-(trifluoromethyl)benzoate]", "EC50": "≤ 3"}
{"smiles": "CCC(=O)c1cc(CC(=O)O)ccc1-c1ccc(OCc2ccc(C(F)(F)F)c(O)c2C(=O)OC(C)(C)C)cc1", "note": "[Example 69, (4′-{[2-(tert-Butoxycarbonyl)-3-hydroxy-4-(trifluoromethyl)benzyl]oxy}-2-propionyl-1,1′-biphenyl-4-yl)acetic acid]", "EC50": "≤ 3"}
{"smiles": "C=C(C(=O)O)c1ccc(-c2ccc(OCc3ccc(C(F)(F)F)c(O)c3C(=O)OC(C)(C)C)cc2)cc1", "note": "[Example 70, 2-(4′-{[2-(tert-Butoxycarbonyl)-3-hydroxy-4-(trifluoromethyl)benzyl]oxy}-1,1′-biphenyl-4-yl)acrylic acid]", "EC50": "≤ 3"}
{"smiles": "Cc1cc(CC(=O)O)cnc1-c1ccc(OCc2ccc(C(F)(F)F)c(O)c2C(=O)OC(C)(C)C)cc1", "note": "[Example 71, [6-(4-{[2-(tert-Butoxycarbonyl)-3-hydroxy-4-(trifluoromethyl)benzyl]oxy}phenyl)-5-methyl-3-pyridinyl]acetic acid]", "EC50": "≤ 3"}
{"smiles": "CC(C)OC(=O)c1c(COc2ccc(-c3ccc(CC(=O)O)cc3)cc2)ccc(C(F)(F)F)c1O", "note": "[Example 72, (4′-{[3-Hydroxy-2-(isopropoxycarbonyl)-4-(trifluoromethyl)benzyl]oxy}-1,1′-biphenyl-4-yl)acetic acid]", "EC50": "≤ 3"}
{"smiles": "CC(OC(=O)c1c(COc2ccc(-c3ccc(CC(=O)O)cc3)cc2)ccc(C(F)(F)F)c1O)C(F)(F)F", "note": "(stereo not drawn) [Example 73, [4′-({3-Hydroxy-4-(trifluoromethyl)-2-[(2,2,2-trifluoro-1-methylethoxy)carbonyl]benzyl}oxy)-1,1′-biphenyl-4-yl]acetic acid]", "EC50": "≤ 3"}
{"smiles": "CC(C)(C)OC(=O)c1c(COc2ccc(-c3ccc4c(c3)OCC4C(=O)O)cc2)ccc(C(F)(F)F)c1O", "note": "(stereo not drawn) [Example 74, 6-(4-{[2-(tert-Butoxycarbonyl)-3-hydroxy-4-(trifluoromethyl)benzyl]oxy}phenyl)-2,3-dihydro-1-benzofuran-3-carboxylic acid]", "EC50": "≤ 3"}
{"smiles": "CC(C)(C)OC(=O)c1c(COc2ccc(-c3cncc(S(C)(=O)=O)c3)cc2)ccc(C(F)(F)F)c1O", "note": "[Example 75, tert-Butyl 2-hydroxy-6-({4-[5-(methylsulfonyl)-3-pyridinyl]phenoxy}methyl)-3-(trifluoromethyl)benzoate]", "EC50": "≤ 3"}
{"smiles": "Cc1c(CC(=O)O)cncc1-c1ccc(OCc2ccc(C(F)(F)F)c(O)c2C(=O)OC(C)(C)C)cc1", "note": "[Example 76, [5-(4-{[2-(tert-Butoxycarbonyl)-3-hydroxy-4-(trifluoromethyl)benzyl]oxy}phenyl)-4-methyl-3-pyridinyl]acetic acid]", "EC50": "≤ 3"}
{"smiles": "COCC(C(=O)O)c1ccc(-c2ccc(OCc3ccc(C(F)(F)F)c(O)c3C(=O)OC(C)(C)C)cc2)cc1", "note": "(stereo not drawn) [Example 77, 2-(4′-{[2-(tert-Butoxycarbonyl)-3-hydroxy-4-(trifluoromethyl)benzyl]oxy}-1,1′-biphenyl-4-yl)-3-methoxypropanoic acid]", "EC50": "≤ 3"}
{"smiles": "CCc1cc(C(CO)C(=O)O)ccc1-c1ccc(OCc2ccc(C(F)(F)F)c(O)c2C(=O)OC(C)(C)C)cc1", "note": "(stereo not drawn) [Example 78, 2-(4′-{[2-(tert-Butoxycarbonyl)-3-hydroxy-4-(trifluoromethyl)benzyl]oxy}-2-ethyl-1,1′-biphenyl-4-yl)-3-hydroxypropanoic acid]", "EC50": "≤ 3"}
{"smiles": "CC(C)(C)OC(=O)c1c(COc2ccc(-c3ccc(C(CO)C(=O)O)c(F)c3)cc2)ccc(C(F)(F)F)c1O", "note": "(stereo not drawn) [Example 79, 2-(4′-{[2-(tert-Butoxycarbonyl)-3-hydroxy-4-(trifluoromethyl)benzyl]oxy}-3-fluoro-1,1′-biphenyl-4-yl)-3-hydroxypropanoic acid]", "EC50": "≤ 3"}
{"smiles": "CC(C)(C)OC(=O)c1c(COc2ccc(-c3ccc(CC(=O)O)cc3O)cc2)ccc(C(F)(F)F)c1O", "note": "[Example 80, (4′-{[2-(tert-Butoxycarbonyl)-3-hydroxy-4-(trifluoromethyl)benzyl]oxy}-2-hydroxy-1,1′-biphenyl-4-yl)acetic acid]", "EC50": "≤ 3"}
{"smiles": "CC(C(=O)O)c1ccc(-c2ccc(OCc3ccc(C(F)(F)F)c(O)c3C(=O)OC(C)(C)C)cc2)cc1", "note": "(stereo not drawn) [Example 81, 2-(4′-{[2-(tert-Butoxycarbonyl)-3-hydroxy-4-(trifluoromethyl)benzyl]oxy}-1,1′-biphenyl-4-yl)propanoic acid]", "EC50": "≤ 3"}
{"smiles": "CC(C)(C)OC(=O)c1c(COc2ccc(-c3ccc(CC(=O)O)cc3C3CC3)cc2)ccc(C(F)(F)F)c1O", "note": "[Example 82, (4′-{[2-(tert-Butoxycarbonyl)-3-hydroxy-4-(trifluoromethyl)benzyl]oxy}-2-cyclopropyl-1,1′-biphenyl-4-yl)acetic acid]", "EC50": "≤ 3"}
{"smiles": "CC(C)(C)OC(=O)c1c(COc2ccc(-c3ccc(CC(=O)O)c([N+](=O)[O-])c3)cc2)ccc(C(F)(F)F)c1O", "note": "[Example 83, (4′-{[2-(tert-Butoxycarbonyl)-3-hydroxy-4-(trifluoromethyl)benzyl]oxy}-3-nitro-1,1′-biphenyl-4-yl)acetic acid]", "EC50": "≤ 3"}
{"smiles": "Cc1cc(CC(=O)O)ccc1-c1ccc(OCc2ccc(C(F)(F)F)c(O)c2C(=O)OC(C)(C)C)cn1", "note": "[Example 84, [4-(5-{[2-(tert-Butoxycarbonyl)-3-hydroxy-4-(trifluoromethyl)benzyl]oxy}-2-pyridinyl)-3-methylphenyl]acetic acid]", "EC50": "≤ 3"}
